Assay results: article PMC13598245
Results are given in words; binding and its absence hold for the method and conditions named. A result given as binding can be weak or reduced; the word gives no strength.

Experiments:
Experiment in all cases: fluorescence polarisation; fluorescence anisotropy; 2x serial dilution of purified protein mixed with 50 nM N-terminally FITC-conjugated peptide, room temperature, 15 min, 384-well plate; one-site binding model, n = 3; both purified
[1] = molecular target: T1, MAST1^153-166 R156E R158E (Mus musculus)
T1 sequence (peptide, FITC on the N-terminus): PAVEPESRSLSPGR

[2] = molecular target: T2, MAST1^153-166 WT (Mus musculus)
T2 sequence (peptide, FITC on the N-terminus): PAVRPRSRSLSPGR

[3] = molecular target: T3, MAST1^153-166 R156E R158E L162D (Mus musculus)
T3 sequence (peptide, FITC on the N-terminus): PAVEPESRSDSPGR

Measured: binding

MAST1^DK ΔS90 ΔS161 (Mus musculus) (domain or fragment)
binds weakly: all assays above
